In patent publication US10544441B2, “Method for biocatalytic whole cell reduction of dehydrocholic acid compounds, and 7-β-hydroxysteroid dehydrogenase mutants” (Pharmazell GmbH, priority 2014, dated 2020):
Residue numbers refer to the chain shown, from its start. Numbers in names are those of the source. Some results were stated once for a whole list of compounds, not compound by compound.

B1: DFK: 7β-HSDH mutant with amino acid substitutions G39D R40F R41K compared to the wild type sequence (protein)
chain: MNLREKYGEWGLILGATEGVGKAFCEKIAAGGMNVVMVDFKEEKLNVLAGEIRETYGVETKVVRADFSQPGAAETVFAATEGLDMGFMSYVACLHSFGKIQDTPWEKHEAMINVNVVTFLKCFHHYMRIFAAQDRGAVINVSSMTGISSSPWNGQYGAGKAFILKMTEAVACECEGTGVDVEVITLGTTLTPSLLSNLPGGPQGEAVMKIALTPEECVDEAFEKLGKELSVIAGQRNKDSVHDWKANHTEDEYIRYMGSFYRD
B2: DFKG: 7β-HSDH mutant with amino acid substitutions G39D R40F R41K K44G compared to the wild type sequence (protein)
chain: B1 chain with K44G

Test: Enzyme kinetic study of 7β-HSDH mutants, DHCA kinetics with NADH as cofactor
Format: biochemical
Procedure: Enzyme activity determinations were performed at 30° C. in the microtiter plate photometer with a sample volume of 250 μL, in which the change in the NAD(P)H concentration (ε 340=6.22 mL μmol^−1 cm^−1) was monitored at a wavelength of λ=340 nm. Here, the activities were determined by linear regression in the part of the reaction proceeding linearly. For this, the sample to be tested was appropriately diluted with potassium phosphate buffer (50 mM, pH 8.0) and treated with substrate and cofactor. The final concentrations of substrate and cofactor were 10 mM DHCA and 100 μM NADPH for 7β-HSDH, 10 mM DHCA and 100 μM NADH for 3α-HSDH, and 200 mM glucose and 1000 μM NAD(P) for GDH.
The mutants created were assessed by means of enzyme kinetic studies. For the study of the DHCA kinetics, 0.5 mM NADH was used as the cofactor (FIG. 9), while for the study of the NADH kinetics, 10 mM DHCA was used as the substrate (FIG. 10). From the plots of the DHCA kinetics, the characteristic curve shapes of the Michaelis-Menten kinetics can be discerned for the 7β-HSDH mutants, and no substrate inhibition was observed. Accordingly, the classical Michaelis-Menten model (equation 1) was used for the evaluation of the kinetic parameters.
[formula] […]

Molecule | maximum specific enzyme activity higher than the previously most active mutant G39D R40I
B1 | 23-27%
B2 | 23-27%
